Data published in patent publication US10428030B2, “Heterocycle derivatives and their use for the treatment of CNS disorders” (Trillium Therapeutics Inc., priority 2015, dated 2019).

Experiments:
[1] = system: Frings audiogenic seizure-susceptible mice; experiment: Frings audiogenic seizure (AGS)-susceptible mouse model; type: in vivo; details: TD50 in mice and ED50 in Frings mice
Text: Frings audiogenic seizure (AGS)-susceptible mice model examines the ability of an investigational drug to alter the onset and/or severity of seizures in a genetic mouse model of seizure susceptibility. Mice are genetically susceptible to sound-induced reflex seizures. Their seizure phenotype is characterized by wild running, loss of righting reflex, tonic flexion, and tonic extension in response to high-intensity sound stimulation. […] For example, the prototypical anticonvulsants phenytoin and ethosuximide display widely divergent clinical spectrums in humans, but are both active against sound-induced seizures in mice. Yet, the preclinical utility of this animal model rests in the useful information that can be obtained within a genetically susceptible model of seizures. Further, efficacy in this model provides proof of concept of brain bioavailability following systemic administration. The Frings AGS-susceptible mouse has a well-validated epilepsy phenotype that makes it particularly useful as a screening model. Beginning at about 21 days of age, Frings AGS-susceptible mice display prominent seizure activity in response to a high-intensity sound stimulus. They then remain susceptible to sound throughout their life. This is in stark contrast to the DBA2J AGS-susceptible mouse, which is the other common model of sound-induced seizures, as DBA2J mice are only susceptible to sound-induced seizures during a narrow developmental window (post-natal days 18-30). Thus, the Frings AGS-susceptible mouse seizures respond to a wide range of CNS-active drugs and display sound-induced seizures throughout their lifetime. In this regard, Frings AGS-susceptible mice are a highly useful screening model for the identification and characterization of compounds potentially effective against inherited epilepsy.
Male and female Frings audiogenic seizure-susceptible mice (18-25 g) are maintained in an in-house colony at the University of Utah. For each screening test, groups of 8 mice each are treated i.p. with varying doses of the investigational compound. At the time of peak effect as determined in the MES test (Test 4 in CF1 mice), individual mice are placed in a round plexiglass jar (diameter, 15 cm, height, 18 cm) and exposed to a sound stimulus of 110 decibels (11 KHz) delivered for 20 sec. Mice are observed for 25 sec for the presence or absence of hind limb tonic extension. Mice not displaying hind limb tonic extension are considered protected. The severity of a seizure may also be quantitated by assigning a numerical score to the observed response, e.g. no response—0; wild running for <10 sec—1; wild running for >10 sec—2; clonic seizure—3; forelimb extension/hind limb flexion—4; tonic seizure—5.

Male Sprague-Dawley rats = experiment: Maximal Electroshock Seizure (MES) rat model; type: in vivo; details: protective index, rotorod vs MES, rat po
Experimental: Male, Sprague-Dawley rats and CD-1 mice were used for all studies. All animals were allowed ad-lib access to food and water except during experiment. Animals were housed within an animal vivarium maintained under a 12 h light:dark cycle (lights on: 07:00 h), and all experiments were conducted in the animals light phase. For all experiments, animals were habituated to the vivarium for a minimum of 72 h before experimentation. The experimental procedures used in the present investigation were conducted under the Association for Assessment and Accreditation of Laboratory Animal Care (AAALAC) and the Canadian Council on Animal Care (CCAC) guidelines.
All compounds were sonicated in 5% Tween 80® in saline or methylcellulose 0.5% (wgt/vol), using MC and sterile water and injected in a dose volume of 5 ml/kg or 10 ml/kg (rat), and 10 ml/kg (mouse). Drugs were administered by either the oral, intraperitoneal or intravenous route.
Male Sprague-Dawley rats of body weight 80-100 g were used for these studies. Each experiment was conducted over 3 consecutive days. On day 1 and 2, each rat received a single electrical stimulus (150 mA, 0.2 s duration, 60 Hz) via corneal electrodes moistened with saline (Shock stimulator type 221: Harvard apparatus). […] Typically this reflected approximately 70-90% of the initial group. […]

SMILES	P.I (TD50/ED50) [1]	PI (Male Sprague-Dawley rats)
NC(=O)N1c2ccccc2C=Cc2ccccc21 [Carbamazepine]	4.1	–
O=C1COc2cc(OCc3ccc(OC(F)F)cc3)ccc2N1 [Compound I(B)]	77	>25
CCC1(C)CC(=O)NC1=O (stereo not shown) [Ethosuximide]	1	–
NC(=O)OCC(COC(N)=O)c1ccccc1 [Felbamate]	22	–
NCC1(CC(=O)O)CCCCC1 [Gabapentin]	>5.5	–
O=C1Nc2ccc(OCc3ccccc3)cc2OC1(F)F [I(D), 7-Benzyloxy-2,2-difluoro-4H-benzo[1,4]oxazin-3-one]	–	>3.9
Nc1nnc(-c2cccc(Cl)c2Cl)c(N)n1 [Lamotrigine]	13	–
O=C1NC(=O)C(c2ccccc2)(c2ccccc2)N1 [Phenytoin]	11	–
CCCC(CCC)C(=O)O [Valproic Acid]	2.6	–
